# Laboratory results: PubChem BioAssay AID248 (DTP/NCI, 2004)
# The list shows only some results of the screen, not a fair sample: its compounds were picked by chemical class. Not every dose and run of a compound is shown. T/C gives the treated animals as a percentage of the vehicle group. Some doses have a count of surviving animals in place of a T/C: the source files T/C as zero there, which appears to mark a toxic dose or a test without result, not a measured value. Counts of survivors are from the toxicity check (mostly the fifth day) where no day follows; animals may have died later. Schedule codes are those of the source, taken here to give the interval after Q, in days (D) or hours (H), and the number of doses after X. Where survival is the endpoint, this PubChem deposit counts one and a half times the control or more as active, and values a quarter to a half above the control carry no call in these data; other NCI protocols may use other cut-offs. Counts like (3×) say how often a value occurs here. Some entries were tested several times; the results are listed from low to high. Some schedule codes hold Z or #, which are not explained here. Some T/C values carry the count of animals alive at the toxicity check (mostly the fifth day); where neither a count nor a note follows, no animal had died by that day.
# Tested on: L1210 leukemia ip in BDF1 mice, survival T/C
# Experiment: NCI In Vivo Anticancer Drug Screen. Data for tumor model L1210 Leukemia (intraperitoneal) in B6D2F1 (BDF1) mice
# Conditions: T/C endpoint: mean survival time, higher T/C = longer survival
# [1] = dose: 112.0 mg/kg/injection, schedule: Q01DX006 (iv), vehicle: carboxymethylcellulose (CMC)
structure (smiles),measurement,setting,value
NC(=O)c1[nH]cnc1/N=N\N(CCCl)CCCl,T/C,"dose: 100.0 mg/kg/injection, schedule: Q## X005 (ip), vehicle: carboxymethylcellulose (CMC)",301 % of control
same,T/C,"dose: 102.0 mg/kg/injection, schedule: Q01DX001 (ip), vehicle: carboxymethylcellulose (CMC)",178 and 205 % of control
same,T/C,"dose: 102.0 mg/kg/injection, schedule: Q07DX Z (ip), vehicle: carboxymethylcellulose (CMC)",226 and 333 % of control
same,T/C,"dose: 106.0 mg/kg/injection, schedule: Q01DX001 (ip), vehicle: other",147 % of control
same,T/C,"dose: 108.0 mg/kg/injection, schedule: Q01DX009 (ip), vehicle: carboxymethylcellulose (CMC)",267 % of control
same,T/C,"dose: 108.0 mg/kg/injection, schedule: Q01DX017 (ip), vehicle: carboxymethylcellulose (CMC)",225 % of control
same,T/C,"dose: 108.0 mg/kg/injection, schedule: Q01DX Z (ip), vehicle: carboxymethylcellulose (CMC)",206 and 215 % of control
same,T/C,"dose: 108.0 mg/kg/injection, schedule: Q01DX Z (sc), vehicle: carboxymethylcellulose (CMC)",272 % of control
same,T/C,"dose: 108.0 mg/kg/injection, schedule: Q04DX003 (ip), vehicle: carboxymethylcellulose (CMC)",265 % of control
same,T/C,"dose: 108.0 mg/kg/injection, schedule: Q04DX005 (ip), vehicle: carboxymethylcellulose (CMC)",335 % of control
same,T/C,"dose: 108.0 mg/kg/injection, schedule: Q04DX Z (ip), vehicle: carboxymethylcellulose (CMC)",312 and 475 % of control
same,T/C,"dose: 108.0 mg/kg/injection, schedule: Q04DX Z (sc), vehicle: carboxymethylcellulose (CMC)",146 % of control
same,T/C,[1],313 % of control [5 of 6 alive]
same,survivor count,[1],1 of 6
same,T/C,"dose: 112.0 mg/kg/injection, schedule: Q01DX Z (im), vehicle: carboxymethylcellulose (CMC)",190 and 287 % of control
same,T/C,"dose: 112.0 mg/kg/injection, schedule: Q01DX Z (ip), vehicle: carboxymethylcellulose (CMC)",165 and 174 % of control
same,T/C,"dose: 112.0 mg/kg/injection, schedule: Q01DX Z (oral), vehicle: carboxymethylcellulose (CMC)",175 and 288 % of control
same,T/C,"dose: 112.0 mg/kg/injection, schedule: Q01DX Z (sc), vehicle: carboxymethylcellulose (CMC)",180 and 246 % of control
same,T/C,"dose: 120.0 mg/kg/injection, schedule: Q01DX001 (ip), vehicle: clinical formulation",96 and 150 % of control
same,T/C,"dose: 125.0 mg/kg/injection, schedule: Q01DX001 (ip), vehicle: carboxymethylcellulose (CMC)",175 % of control
same,T/C,"dose: 125.0 mg/kg/injection, schedule: Q06HX008 (ip), vehicle: carboxymethylcellulose (CMC)",520 % of control
same,T/C,"dose: 126.0 mg/kg/injection, schedule: Q#A X Z (ip), vehicle: carboxymethylcellulose (CMC)",100 % of control [5 of 6 alive]
same,T/C,"dose: 129.6 mg/kg/injection, schedule: Q01DX001 (ip), vehicle: other",108 % of control
same,T/C,"dose: 129.6 mg/kg/injection, schedule: Q01DX001 (ip), vehicle: steroid suspending solution",99 % of control
same,T/C,"dose: 134.5 mg/kg/injection, schedule: Q01DX001 (ip), vehicle: steroid suspending solution",289 % of control
same,T/C,"dose: 135.0 mg/kg/injection, schedule: Q04DX004 (ip), vehicle: other",294 % of control
same,T/C,"dose: 150.0 mg/kg/injection, schedule: Q01DX001 (ip), vehicle: carboxymethylcellulose (CMC)","161, 183, 188, 200 % of control"
same,T/C,"dose: 150.0 mg/kg/injection, schedule: Q01DX005 (oral), vehicle: carboxymethylcellulose (CMC)",221 % of control
same,T/C,"dose: 150.0 mg/kg/injection, schedule: Q01DX009 (oral), vehicle: carboxymethylcellulose (CMC)",300 % of control
same,T/C,"dose: 150.0 mg/kg/injection, schedule: Q01DX017 (oral), vehicle: steroid suspending solution",109 and 166 % of control
same,T/C,"dose: 150.0 mg/kg/injection, schedule: Q03DX Z (ip), vehicle: carboxymethylcellulose (CMC)",327 % of control
same,T/C,"dose: 150.0 mg/kg/injection, schedule: Q03HX008 (oral), vehicle: carboxymethylcellulose (CMC)",147 % of control
same,T/C,"dose: 150.0 mg/kg/injection, schedule: Q04DX005 (oral), vehicle: carboxymethylcellulose (CMC)",226 % of control
same,T/C,"dose: 150.0 mg/kg/injection, schedule: Q04DX005 (oral), vehicle: steroid suspending solution",141 % of control
same,T/C,"dose: 150.0 mg/kg/injection, schedule: Q06HX012 (oral), vehicle: steroid suspending solution",105 % of control
same,T/C,"dose: 150.0 mg/kg/injection, schedule: Q06HX020 (oral), vehicle: steroid suspending solution",165 % of control [7 of 8 alive]
same,T/C,"dose: 150.0 mg/kg/injection, schedule: Q08DX003 (oral), vehicle: carboxymethylcellulose (CMC)",131 % of control
same,T/C,"dose: 150.0 mg/kg/injection, schedule: Q12HX004 (ip), vehicle: carboxymethylcellulose (CMC)",449 % of control
same,T/C,"dose: 150.0 mg/kg/injection, schedule: Q## X001 (ip), vehicle: carboxymethylcellulose (CMC)",267 % of control
same,T/C,"dose: 150.0 mg/kg/injection, schedule: Q## X009 (oral), vehicle: carboxymethylcellulose (CMC)",315 % of control
same,T/C,"dose: 153.0 mg/kg/injection, schedule: Q01DX001 (ip), vehicle: carboxymethylcellulose (CMC)",279 % of control
same,T/C,"dose: 153.0 mg/kg/injection, schedule: Q07DX Z (ip), vehicle: carboxymethylcellulose (CMC)",348 % of control
same,T/C,"dose: 156.0 mg/kg/injection, schedule: Q01DX001 (ip), vehicle: other",154 % of control (2×)
same,T/C,"dose: 166.0 mg/kg/injection, schedule: Q04DX003 (ip), vehicle: other",232 and 307 % of control
same,survivor count,"dose: 168.0 mg/kg/injection, schedule: Q01DX006 (iv), vehicle: carboxymethylcellulose (CMC)",0 of 6
same,T/C,"dose: 168.0 mg/kg/injection, schedule: Q01DX Z (im), vehicle: carboxymethylcellulose (CMC)",152 % of control
same,T/C,"dose: 168.0 mg/kg/injection, schedule: Q01DX Z (ip), vehicle: carboxymethylcellulose (CMC)",119 % of control
same,T/C,"dose: 168.0 mg/kg/injection, schedule: Q01DX Z (oral), vehicle: carboxymethylcellulose (CMC)",155 % of control
same,T/C,"dose: 168.0 mg/kg/injection, schedule: Q01DX Z (sc), vehicle: carboxymethylcellulose (CMC)",137 and 160 % of control
same,survivor count,"dose: 175.0 mg/kg/injection, schedule: Q01DX001 (ip), vehicle: carboxymethylcellulose (CMC)",0 of 10
same,survivor count,"dose: 175.0 mg/kg/injection, schedule: Q04DX002 (ip), vehicle: carboxymethylcellulose (CMC)",0 of 10
same,T/C,"dose: 175.0 mg/kg/injection, schedule: Q04DX003 (ip), vehicle: carboxymethylcellulose (CMC)",277 % of control
same,T/C,"dose: 175.0 mg/kg/injection, schedule: Q04DX004 (ip), vehicle: carboxymethylcellulose (CMC)",305 % of control
same,T/C,"dose: 175.0 mg/kg/injection, schedule: Q04DX005 (ip), vehicle: carboxymethylcellulose (CMC)",322 % of control
same,T/C,"dose: 180.0 mg/kg/injection, schedule: Q01DX001 (ip), vehicle: carboxymethylcellulose (CMC)","147, 220, 327 % of control"
same,T/C,"dose: 180.0 mg/kg/injection, schedule: Q01DX001 (ip), vehicle: clinical formulation",94 and 219 % of control
same,T/C,"dose: 180.0 mg/kg/injection, schedule: Q01DX009 (ip), vehicle: carboxymethylcellulose (CMC)",124 % of control
same,T/C,"dose: 180.0 mg/kg/injection, schedule: Q01DX017 (ip), vehicle: carboxymethylcellulose (CMC)",160 % of control
same,T/C,"dose: 180.0 mg/kg/injection, schedule: Q01DX Z (ip), vehicle: carboxymethylcellulose (CMC)",113 and 160 % of control
same,T/C,"dose: 180.0 mg/kg/injection, schedule: Q01DX Z (sc), vehicle: carboxymethylcellulose (CMC)",224 % of control
same,T/C,"dose: 180.0 mg/kg/injection, schedule: Q04DX003 (ip), vehicle: carboxymethylcellulose (CMC)",468 % of control
same,T/C,"dose: 180.0 mg/kg/injection, schedule: Q04DX005 (ip), vehicle: carboxymethylcellulose (CMC)",535 % of control
